Source: article PMC5581180

Test system: NeqSSB-TaqS fusion DNA polymerase
Experiment: EMSA
Settings: mixed with 2.5 pmol 100 bp dsDNA, 10 pmol (dT)76, partial binding at 3.3 pmol protein, full at 26.4 pmol, prefers ssDNA; EMSA as in Olszewski et al. 2015 (buffer, salt, pH and temperature not given here); 10 pmol (dT)76 and/or 2.5 pmol 100 bp PCR product; 2% agarose gel, ethidium bromide; recombinant protein; protein details: C-terminal His tag; label: 5' fluorescein; single-stranded DNA

Sequence: TTTTTTTTTTTTTTTTTTTTTTTTTTTTTTTTTTTTTTTTTTTTTTTTTTTTTTTTTTTTTTTTTTTTTTTTTTTT [(dT)76]
- binding result: binds

For at least one entry, the source does not settle the construct or the ends of the probe.
